Article PMC12719381
Results are given in words; binding and its absence hold for the method and conditions named. In cells and extracts the contact can be indirect. Some results given as binding are weak or reduced against the parent protein; the word gives no strength.

The chains behind the UniProt entries cited, without tags or fusion partners. Where a name states a change or a piece, a line headed by the entry shows the natural chain unless it says otherwise.
UniProt Q99873: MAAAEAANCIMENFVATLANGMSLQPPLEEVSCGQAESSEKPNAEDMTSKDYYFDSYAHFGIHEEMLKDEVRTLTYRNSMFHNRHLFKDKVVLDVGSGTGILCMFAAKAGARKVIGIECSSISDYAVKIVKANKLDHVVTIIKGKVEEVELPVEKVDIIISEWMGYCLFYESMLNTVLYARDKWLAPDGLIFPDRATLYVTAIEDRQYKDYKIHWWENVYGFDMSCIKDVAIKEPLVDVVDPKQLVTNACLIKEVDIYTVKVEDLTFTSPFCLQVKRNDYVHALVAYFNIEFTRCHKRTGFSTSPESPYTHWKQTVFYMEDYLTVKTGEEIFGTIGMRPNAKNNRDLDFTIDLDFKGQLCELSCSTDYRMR

T1: Fos-like antigen 1 (FOSL1) (human (endogenous in U251R and LN229R)) (UniProt P15407)
T1 sequence: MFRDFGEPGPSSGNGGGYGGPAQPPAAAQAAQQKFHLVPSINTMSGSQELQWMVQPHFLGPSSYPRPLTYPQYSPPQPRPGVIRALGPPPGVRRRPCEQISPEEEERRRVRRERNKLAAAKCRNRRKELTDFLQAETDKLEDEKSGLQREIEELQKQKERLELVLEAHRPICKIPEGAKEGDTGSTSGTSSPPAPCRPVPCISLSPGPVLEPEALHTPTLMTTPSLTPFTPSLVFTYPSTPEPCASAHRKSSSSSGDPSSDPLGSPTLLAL


Columns and labels:
[1] = target: T1, Fos-like antigen 1 (FOSL1) (human (endogenous in U251R and LN229R)); assay: co-IP; endogenous proteins; U251R and LN229R cells lysed in RIPA buffer, pre-cleared, 1 ug anti-FOSL1 or anti-PRMT1 antibody or IgG for 16 h, Protein A/G agarose beads at 4 °C overnight, washed four times with PBS, immunoblot; silver staining of the co-IP samples
[2] = target: Protein Arginine Methyltransferase 1 (PRMT1) (human (endogenous in U251R and LN229R)) (UniProt Q99873); assay: as above

| binding [1] | binding [2] | Molecule |
| --- | --- | --- |
| binds |  | Protein Arginine Methyltransferase 1 (PRMT1) (from UniProt Q99873 1-371) (enzyme) |
|  | binds | Fos-like antigen 1 (FOSL1) (protein, UniProt P15407 1-271) MFRDFGEPGPSSGNGGGYGGPAQPPAAAQAAQQKFHLVPSINTMSGSQELQWMVQPHFLGPSSYPRPLTYPQYSPPQPRPGVIRALGPPPGVRRRPCEQISPEEEERRRVRRERNKLAAAKCRNRRKELTDFLQAETDKLEDEKSGLQREIEELQKQKERLELVLEAHRPICKIPEGAKEGDTGSTSGTSSPPAPCRPVPCISLSPGPVLEPEALHTPTLMTTPSLTPFTPSLVFTYPSTPEPCASAHRKSSSSSGDPSSDPLGSPTLLAL |
